Measurements: the supplement of paper PMC12823440, “Inhibitors supercharge kinase turnover through native proteolytic circuits” (Nature, 2025)
Structures can show the parent of a compound that is named as a salt. The list shows a part of the results. The calls rarely recur for the same compound in another form.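 In K562 cells expressing nanoluciferase-fused kinases, luminescence was recorded at 4 h intervals between 2 and 18 h, normalized as percent of control with DMSO at 100% and a positive control at 0%. A significant (2 sigma) signal drop marks a time point as decreased. The authors' rule for a hit is not shown and takes in more than the number of time points.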

Sequences of proteins named here, by UniProt entry; tags and fusion partners are left off. A change or cut given only in a name is not applied to a line headed by its entry.
UniProt Q15303, whole entry R711C: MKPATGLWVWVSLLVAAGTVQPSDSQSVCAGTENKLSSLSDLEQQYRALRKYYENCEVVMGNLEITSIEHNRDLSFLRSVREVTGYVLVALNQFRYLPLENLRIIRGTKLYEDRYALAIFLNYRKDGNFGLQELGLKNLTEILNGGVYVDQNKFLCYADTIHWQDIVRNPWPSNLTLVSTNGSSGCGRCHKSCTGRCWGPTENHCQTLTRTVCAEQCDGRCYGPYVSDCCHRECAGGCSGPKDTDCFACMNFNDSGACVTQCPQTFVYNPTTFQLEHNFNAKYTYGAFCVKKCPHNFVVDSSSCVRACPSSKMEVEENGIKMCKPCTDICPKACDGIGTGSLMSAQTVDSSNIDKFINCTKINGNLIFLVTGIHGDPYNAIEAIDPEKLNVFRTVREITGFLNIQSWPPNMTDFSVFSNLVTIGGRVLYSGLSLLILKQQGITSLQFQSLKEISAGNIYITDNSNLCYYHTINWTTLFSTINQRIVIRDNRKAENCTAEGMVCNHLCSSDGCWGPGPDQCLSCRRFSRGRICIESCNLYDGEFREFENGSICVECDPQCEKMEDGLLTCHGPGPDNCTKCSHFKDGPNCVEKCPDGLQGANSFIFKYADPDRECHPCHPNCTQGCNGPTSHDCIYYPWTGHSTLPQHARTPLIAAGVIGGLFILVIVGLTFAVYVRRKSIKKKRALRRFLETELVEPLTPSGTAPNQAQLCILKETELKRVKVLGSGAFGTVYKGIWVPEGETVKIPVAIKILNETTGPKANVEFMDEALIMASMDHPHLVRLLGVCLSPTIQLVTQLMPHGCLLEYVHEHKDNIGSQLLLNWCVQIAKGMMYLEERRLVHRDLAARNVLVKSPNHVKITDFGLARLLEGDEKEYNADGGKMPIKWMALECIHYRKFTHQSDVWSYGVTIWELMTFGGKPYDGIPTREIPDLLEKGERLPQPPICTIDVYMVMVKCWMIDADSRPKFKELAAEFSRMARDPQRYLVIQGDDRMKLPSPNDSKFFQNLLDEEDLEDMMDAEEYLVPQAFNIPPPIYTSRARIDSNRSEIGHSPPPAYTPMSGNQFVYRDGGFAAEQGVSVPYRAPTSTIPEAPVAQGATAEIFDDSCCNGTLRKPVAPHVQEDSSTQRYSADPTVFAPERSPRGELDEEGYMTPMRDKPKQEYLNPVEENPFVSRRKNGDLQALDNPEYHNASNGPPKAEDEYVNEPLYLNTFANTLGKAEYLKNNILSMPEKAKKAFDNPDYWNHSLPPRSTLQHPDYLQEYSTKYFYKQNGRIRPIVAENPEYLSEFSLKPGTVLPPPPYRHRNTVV
UniProt O75460: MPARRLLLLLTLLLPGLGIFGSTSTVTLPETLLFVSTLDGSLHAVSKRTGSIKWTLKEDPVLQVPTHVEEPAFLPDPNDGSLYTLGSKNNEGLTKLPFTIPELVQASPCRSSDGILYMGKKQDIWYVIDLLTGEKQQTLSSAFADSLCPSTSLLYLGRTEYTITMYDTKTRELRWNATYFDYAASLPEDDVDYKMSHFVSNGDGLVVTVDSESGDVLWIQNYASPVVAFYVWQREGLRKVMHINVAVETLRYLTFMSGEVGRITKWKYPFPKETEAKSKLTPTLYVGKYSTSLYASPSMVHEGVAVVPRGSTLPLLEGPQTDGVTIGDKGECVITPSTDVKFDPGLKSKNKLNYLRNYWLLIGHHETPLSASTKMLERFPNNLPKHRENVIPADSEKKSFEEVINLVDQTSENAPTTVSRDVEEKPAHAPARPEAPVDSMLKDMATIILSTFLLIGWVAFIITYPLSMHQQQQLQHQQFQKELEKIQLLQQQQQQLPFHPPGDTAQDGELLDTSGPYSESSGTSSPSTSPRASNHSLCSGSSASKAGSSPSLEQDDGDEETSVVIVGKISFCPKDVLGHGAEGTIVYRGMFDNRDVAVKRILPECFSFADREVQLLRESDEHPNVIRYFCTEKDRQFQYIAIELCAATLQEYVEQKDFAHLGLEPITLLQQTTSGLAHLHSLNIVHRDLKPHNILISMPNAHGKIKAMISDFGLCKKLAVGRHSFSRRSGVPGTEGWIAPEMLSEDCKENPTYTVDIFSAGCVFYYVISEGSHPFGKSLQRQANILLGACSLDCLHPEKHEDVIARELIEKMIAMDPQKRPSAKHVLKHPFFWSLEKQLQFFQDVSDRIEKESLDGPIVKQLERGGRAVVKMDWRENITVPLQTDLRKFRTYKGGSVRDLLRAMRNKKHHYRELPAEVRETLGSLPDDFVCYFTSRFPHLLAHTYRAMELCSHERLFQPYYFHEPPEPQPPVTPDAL
UniProt P21802, whole entry, looked up: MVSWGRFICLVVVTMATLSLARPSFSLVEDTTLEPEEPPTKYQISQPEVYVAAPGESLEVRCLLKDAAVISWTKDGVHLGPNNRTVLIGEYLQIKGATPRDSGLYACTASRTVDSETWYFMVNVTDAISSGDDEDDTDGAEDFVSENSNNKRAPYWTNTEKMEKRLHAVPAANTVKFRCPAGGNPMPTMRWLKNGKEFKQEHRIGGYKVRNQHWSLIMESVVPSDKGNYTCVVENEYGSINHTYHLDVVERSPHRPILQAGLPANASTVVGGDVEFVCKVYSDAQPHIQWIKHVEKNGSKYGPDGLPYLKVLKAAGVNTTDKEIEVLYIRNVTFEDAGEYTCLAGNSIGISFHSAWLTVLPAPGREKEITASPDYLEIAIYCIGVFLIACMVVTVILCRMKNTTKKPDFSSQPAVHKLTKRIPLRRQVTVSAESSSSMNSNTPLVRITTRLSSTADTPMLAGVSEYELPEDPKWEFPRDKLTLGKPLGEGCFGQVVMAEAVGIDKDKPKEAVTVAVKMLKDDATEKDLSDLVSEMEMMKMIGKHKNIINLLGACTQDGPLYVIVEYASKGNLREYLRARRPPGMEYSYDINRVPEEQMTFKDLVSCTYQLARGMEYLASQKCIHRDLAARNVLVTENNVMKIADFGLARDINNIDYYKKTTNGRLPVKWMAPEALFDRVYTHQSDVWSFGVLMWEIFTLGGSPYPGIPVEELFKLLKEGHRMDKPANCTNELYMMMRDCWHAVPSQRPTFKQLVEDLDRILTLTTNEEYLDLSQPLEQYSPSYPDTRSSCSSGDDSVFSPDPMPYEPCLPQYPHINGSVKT
UniProt P22607, whole entry, looked up: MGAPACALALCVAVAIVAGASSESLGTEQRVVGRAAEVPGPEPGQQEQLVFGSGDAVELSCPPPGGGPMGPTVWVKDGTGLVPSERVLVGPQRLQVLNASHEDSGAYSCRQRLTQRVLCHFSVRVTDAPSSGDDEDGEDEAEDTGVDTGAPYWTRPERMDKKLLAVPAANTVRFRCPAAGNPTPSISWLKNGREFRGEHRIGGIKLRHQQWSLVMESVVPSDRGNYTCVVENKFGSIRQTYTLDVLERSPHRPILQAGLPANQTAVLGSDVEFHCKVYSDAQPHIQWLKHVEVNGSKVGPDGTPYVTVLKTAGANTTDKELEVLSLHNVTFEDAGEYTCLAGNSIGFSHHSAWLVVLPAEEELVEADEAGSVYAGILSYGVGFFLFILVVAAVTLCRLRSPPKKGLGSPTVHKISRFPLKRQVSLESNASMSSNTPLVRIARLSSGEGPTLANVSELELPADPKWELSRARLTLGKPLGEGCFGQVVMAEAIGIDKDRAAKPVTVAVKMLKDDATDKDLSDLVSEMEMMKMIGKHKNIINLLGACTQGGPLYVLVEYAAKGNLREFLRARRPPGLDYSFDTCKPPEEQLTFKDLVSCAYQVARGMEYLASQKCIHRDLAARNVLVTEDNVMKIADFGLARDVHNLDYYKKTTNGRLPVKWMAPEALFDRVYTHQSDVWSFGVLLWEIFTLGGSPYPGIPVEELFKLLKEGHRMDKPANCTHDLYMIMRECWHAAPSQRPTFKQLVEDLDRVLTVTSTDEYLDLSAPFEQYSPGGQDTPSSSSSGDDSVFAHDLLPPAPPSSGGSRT
UniProt P06241, whole entry, looked up: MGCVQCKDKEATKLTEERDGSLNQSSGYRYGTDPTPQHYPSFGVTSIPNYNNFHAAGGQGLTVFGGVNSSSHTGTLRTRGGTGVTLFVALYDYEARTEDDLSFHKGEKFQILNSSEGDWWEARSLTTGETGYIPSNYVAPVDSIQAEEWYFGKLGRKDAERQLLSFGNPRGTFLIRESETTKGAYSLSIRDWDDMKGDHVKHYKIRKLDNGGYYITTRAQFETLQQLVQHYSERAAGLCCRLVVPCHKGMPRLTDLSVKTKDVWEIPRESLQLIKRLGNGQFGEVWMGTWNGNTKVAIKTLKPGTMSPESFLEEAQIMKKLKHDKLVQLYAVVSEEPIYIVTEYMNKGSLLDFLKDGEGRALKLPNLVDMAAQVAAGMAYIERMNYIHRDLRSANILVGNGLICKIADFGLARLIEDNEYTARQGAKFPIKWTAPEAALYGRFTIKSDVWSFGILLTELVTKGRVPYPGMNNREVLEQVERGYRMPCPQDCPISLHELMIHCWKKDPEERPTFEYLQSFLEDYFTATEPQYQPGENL
UniProt P49840: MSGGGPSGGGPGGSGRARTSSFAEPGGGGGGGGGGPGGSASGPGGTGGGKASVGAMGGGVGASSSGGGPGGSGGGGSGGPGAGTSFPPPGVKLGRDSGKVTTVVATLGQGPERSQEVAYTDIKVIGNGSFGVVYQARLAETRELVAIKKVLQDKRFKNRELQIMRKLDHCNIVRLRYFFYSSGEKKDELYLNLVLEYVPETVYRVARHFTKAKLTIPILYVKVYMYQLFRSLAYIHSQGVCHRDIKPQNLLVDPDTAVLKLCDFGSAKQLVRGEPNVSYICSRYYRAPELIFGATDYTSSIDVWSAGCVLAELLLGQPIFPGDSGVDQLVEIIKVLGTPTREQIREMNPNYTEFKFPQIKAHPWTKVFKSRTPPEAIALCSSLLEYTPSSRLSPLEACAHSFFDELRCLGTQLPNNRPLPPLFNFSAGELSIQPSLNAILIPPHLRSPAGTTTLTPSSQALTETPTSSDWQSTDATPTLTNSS
UniProt P53667: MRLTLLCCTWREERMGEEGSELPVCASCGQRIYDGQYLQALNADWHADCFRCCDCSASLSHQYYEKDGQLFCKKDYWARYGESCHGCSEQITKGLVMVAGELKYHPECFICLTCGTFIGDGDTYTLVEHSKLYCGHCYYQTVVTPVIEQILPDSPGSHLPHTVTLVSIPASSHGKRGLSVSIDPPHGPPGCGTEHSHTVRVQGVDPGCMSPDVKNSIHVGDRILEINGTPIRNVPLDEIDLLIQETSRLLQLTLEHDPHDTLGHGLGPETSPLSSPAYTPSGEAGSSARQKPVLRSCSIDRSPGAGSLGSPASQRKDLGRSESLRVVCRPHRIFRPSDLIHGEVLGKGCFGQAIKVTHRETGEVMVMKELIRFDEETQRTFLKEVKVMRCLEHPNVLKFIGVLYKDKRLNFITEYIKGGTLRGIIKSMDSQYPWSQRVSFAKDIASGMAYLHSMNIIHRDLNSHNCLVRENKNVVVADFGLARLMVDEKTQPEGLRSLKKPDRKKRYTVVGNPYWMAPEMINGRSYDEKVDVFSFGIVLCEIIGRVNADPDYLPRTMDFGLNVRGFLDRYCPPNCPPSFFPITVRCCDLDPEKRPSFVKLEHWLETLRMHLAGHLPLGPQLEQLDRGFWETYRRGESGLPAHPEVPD
UniProt P53671: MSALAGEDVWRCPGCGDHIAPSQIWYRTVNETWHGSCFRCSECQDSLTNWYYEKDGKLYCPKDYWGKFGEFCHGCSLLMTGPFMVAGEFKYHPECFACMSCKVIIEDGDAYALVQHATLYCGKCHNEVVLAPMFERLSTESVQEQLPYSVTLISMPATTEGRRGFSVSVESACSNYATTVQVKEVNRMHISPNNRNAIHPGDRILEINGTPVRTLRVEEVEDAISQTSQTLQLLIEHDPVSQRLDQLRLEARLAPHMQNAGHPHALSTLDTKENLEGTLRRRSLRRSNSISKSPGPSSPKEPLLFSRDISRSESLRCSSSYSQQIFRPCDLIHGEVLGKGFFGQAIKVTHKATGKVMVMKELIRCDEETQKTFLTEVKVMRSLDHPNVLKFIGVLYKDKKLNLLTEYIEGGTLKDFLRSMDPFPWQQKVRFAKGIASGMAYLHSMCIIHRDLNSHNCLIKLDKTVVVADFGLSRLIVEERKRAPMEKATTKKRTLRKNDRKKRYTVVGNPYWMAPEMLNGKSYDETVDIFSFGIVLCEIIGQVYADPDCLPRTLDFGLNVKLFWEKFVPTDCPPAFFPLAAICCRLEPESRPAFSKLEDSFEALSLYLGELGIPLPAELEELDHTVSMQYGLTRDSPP

Key:
Assay in all cases: number of time points (of 5) at which kinase-Nluc abundance scored as decreased, DMSO-normalised (count); higher = more persistent destabilization
Settings in all cases: K562; 2-18 h
EPHA2 = EPHA2 (UniProt P29317)
ERBB3 = ERBB3 (UniProt P21860)
[1] = target: ERBB4_R711C (clone: ERBB4_mut) (UniProt Q15303)
ERN1 = ERN1 (UniProt O75460)
FGFR1 = FGFR1 (UniProt P11362)
FGFR2 = FGFR2 (UniProt P21802)
FGFR3 = FGFR3 (UniProt P22607)
FGR = FGR (UniProt P09769)
FLT3 = FLT3 (UniProt P36888)
FYN = FYN (UniProt P06241)
GSK3A = GSK3A (UniProt P49840)
HER2 = HER2 (UniProt P04626)
INSRR = INSRR (UniProt P14616)
IRAK3 = IRAK3 (UniProt Q9Y616)
JAK1 = JAK1 (UniProt P23458)
LIMK1 = LIMK1 (UniProt P53667)
LIMK2 = LIMK2 (UniProt P53671)
LCK = LCK (UniProt P06239)

SMILES	number of time points (EPHA2)	number of time points (ERBB3)	number of time points [1]	number of time points (ERN1)	number of time points (FGFR1)	number of time points (FGFR2)	number of time points (FGFR3)	number of time points (FGR)	number of time points (FLT3)	number of time points (FYN)	number of time points (GSK3A)	number of time points (HER2)	number of time points (INSRR)	number of time points (IRAK3)	number of time points (JAK1)	number of time points (LIMK1)	number of time points (LIMK2)	number of time points (LCK)
Cc1cc(N2CCOCC2)cc2[nH]c(-c3c(NC[C@@H](O)c4cccc(Cl)c4)cc[nH]c3=O)nc12 (10 µM)	0	3	3	0	0	3	0	0	0	4	0	0	2	2	0	4	1	–
CNC(=O)c1ccccc1Nc1nc(Nc2ccc(N3CCOCC3)cc2OC)ncc1Cl (2.5 µM)	0	0	0	0	0	0	0	0	0	0	0	0	0	0	0	0	0	–
CC(C)CC(=O)Nc1n[nH]c2c1CN(C(=O)C1CCN(C)CC1)C2(C)C (2.5 µM)	0	3	3	0	0	3	0	0	0	1	3	0	0	3	0	0	0	–
CCN(CCO)CCCOc1ccc2c(Nc3cc(CC(=O)Nc4cccc(F)c4)[nH]n3)ncnc2c1 [Barasertib-HQPA] (10 µM)	0	0	1	0	0	0	0	0	0	0	0	0	0	0	0	0	0	–
Cc1nc(N)sc1-c1ccnc(Nc2ccc(N3CCOCC3)cc2)n1 (10 µM)	0	0	0	0	0	3	0	0	0	3	0	2	0	0	0	1	0	0
O=c1oc2ccccc2c(O)c1Cc1c(O)c2ccccc2oc1=O [Dicoumarol] (10 µM)	0	0	0	0	0	0	0	0	0	0	0	1	0	0	0	0	0	–
COc1ccc2c(NC(=O)Nc3cccc(C(F)(F)F)n3)ccnc2c1 (10 µM)	0	0	0	0	0	0	0	0	0	0	0	0	0	0	0	0	0	0
O=C1c2ccccc2-c2n[nH]c3cccc1c23 (10 µM)	0	0	0	0	0	0	0	0	0	0	0	0	0	0	0	0	0	0
CC(=O)NCC(=O)N1[C@@H]2CC[C@H]1c1ccc(Nc3ncc(C(F)(F)F)c(NC4CCC4)n3)cc12 (2.5 µM)	2	4	4	0	2	3	2	0	1	3	1	3	1	3	1	4	0	0
N#Cc1ccc2[nH]c(O)c(-c3ccc(CN4CCOCC4)cn3)c2c1 (10 µM)	0	0	0	0	0	0	0	0	0	0	0	0	0	0	0	0	0	0
Oc1ccc(-c2nc(-c3ccc(F)cc3)c(-c3ccncc3)[nH]2)cc1 (2.5 µM)	0	0	0	0	0	0	0	0	0	0	0	0	0	0	0	0	0	0
Cc1ccc(NC(=O)Nc2nnc(Sc3ncnc4cc(OCCCN5CCOCC5)ccc34)s2)cc1 (10 µM)	0	0	0	0	0	0	0	0	0	0	0	0	0	0	0	0	0	0
C[C@]1(O)C[C@@H](c2nc(-c3ccc4ccc(-c5ccccc5)nc4c3)c3c(N)nccn32)C1 [Linsitinib] (2.5 µM)	0	0	0	0	0	0	0	0	0	0	0	0	0	0	0	0	0	0
COc1cc2c(Nc3ccc(Br)cc3F)ncnc2cc1OCCn1ccnn1 (10 µM)	0	0	0	0	0	0	0	0	0	0	0	0	0	0	0	0	0	0
C=CC(=O)Nc1ccc2ncnc(Nc3cccc(Br)c3)c2c1 (10 µM)	0	0	2	0	0	3	0	0	0	1	0	0	1	4	0	0	0	0
Cn1c(=O)c(Oc2ccc(F)cc2F)cc2cnc(NC3CCOCC3)nc21 [R1487 (Hydrochloride)] (10 µM)	0	0	0	0	0	0	0	0	0	0	0	0	0	0	0	0	0	–
CCOc1cc2ncc(C#N)c(Nc3ccc(OCc4ccccn4)c(Cl)c3)c2cc1NC(=O)/C=C/CN(C)C [Neratinib] (10 µM)	0	0	0	0	0	0	0	0	0	0	0	5	0	0	0	0	0	0
CN(c1ncccc1CNc1nc(Nc2ccc3c(c2)CC(=O)N3)ncc1C(F)(F)F)S(C)(=O)=O (2.5 µM)	0	3	3	0	0	3	0	0	2	0	0	0	3	3	3	0	0	–
Cc1c(Cn2c(C)nc3c(C(=O)O)cc(N4CCOCC4)cc32)cccc1C(F)(F)F (10 µM)	0	0	0	–	0	0	0	–	0	0	0	0	0	0	0	0	0	0
Cc1c[nH]c2nccc(Oc3c(F)cc(Nc4cc(Cl)nc(N)n4)cc3F)c12 (10 µM)	0	2	1	0	0	0	0	0	4	0	0	2	4	0	1	0	0	0

SMILES	number of time points (EPHA2)	number of time points (ERBB3)	number of time points [1]	number of time points (ERN1)	number of time points (FGFR1)	number of time points (FGFR2)	number of time points (FGFR3)	number of time points (FGR)	number of time points (FLT3)	number of time points (FYN)	number of time points (GSK3A)	number of time points (HER2)	number of time points (INSRR)	number of time points (IRAK3)	number of time points (JAK1)	number of time points (LIMK1)	number of time points (LIMK2)	number of time points (LCK)
COc1cc(C)c(Sc2cnc(NC(=O)c3ccc(CNC(C)C(C)(C)C)cc3)s2)cc1C(=O)N1CCN(C(C)=O)CC1 (configuration not stated) (2.5 µM)	0	0	0	0	0	0	0	0	0	0	0	0	0	0	0	0	0	0
Cc1cc(C)c(/C=C2\C(=O)Nc3ccccc32)[nH]1 [Semaxinib] (10 µM)	0	0	0	0	0	0	0	0	0	0	0	0	0	0	0	0	1	–
CCOc1ccn(-c2ccc(F)cc2)c(=O)c1C(=O)Nc1ccc(Oc2ccnc(N)c2Cl)c(F)c1 (10 µM)	0	3	3	2	2	2	0	0	1	2	0	1	5	1	2	0	0	–
N#C/C(=C\c1ccc(O)c(O)c1)C(=O)NCCCc1ccccc1 (10 µM)	0	0	0	0	0	0	0	0	0	0	0	0	0	0	0	0	0	0
O=c1cc(N2CCOCC2)oc2c(-c3ccccc3)cccc12 (10 µM)	0	0	0	0	0	0	0	0	0	0	0	0	0	0	0	0	0	–
CN1CCC(Nc2ncc3ncnc(Nc4ccc(F)c(Cl)c4)c3n2)CC1 [Falnidamol] (10 µM)	0	0	0	0	0	0	0	0	0	0	0	0	0	0	0	0	0	0
O=C1NCCc2[nH]c(-c3ccnc(-c4cnc5ccccc5c4)c3)cc21 (10 µM)	0	0	0	0	0	0	0	0	0	0	0	0	0	0	0	0	0	0
CCc1nc(-c2cccc(C)c2)c(-c2ccnc(NC(=O)c3ccccc3)c2)s1 (10 µM)	0	0	0	0	0	0	0	0	0	0	0	0	0	0	0	0	0	0
COc1cc(C=C(C#N)C(N)=O)cc(CSc2nc3ccccc3s2)c1O (10 µM)	0	0	0	0	0	0	0	0	0	0	0	0	0	0	0	0	0	0
CCN(CC)CCCCNc1ncc2cc(-c3c(Cl)cccc3Cl)c(NC(=O)NC(C)(C)C)nc2n1 (2.5 µM)	0	0	0	0	0	4	0	0	0	0	1	2	0	0	0	4	2	0
COc1cc(OC)cc(-c2cc3cnc(N)nc3nc2NC(=O)NC(C)(C)C)c1 (10 µM)	0	0	0	0	0	0	0	0	0	0	0	0	0	0	0	0	0	0
COc1cc(Nc2ncc3c(n2)-c2ccc(Cl)cc2C(c2c(F)cccc2OC)=NC3)ccc1C(=O)O [Alisertib] (2.5 µM)	0	0	0	0	0	0	0	0	0	0	0	0	0	0	0	0	0	–
O=S(=O)(NCCNC/C=C/c1ccc(Br)cc1)c1cccc2cnccc12 [H-89 (dihydrochloride)] (10 µM)	0	0	0	0	0	0	0	0	0	0	0	0	0	0	0	0	0	0
N#CC(=Cc1ccc(O)c(O)c1)C(=O)NCc1ccccc1 (mixture of isomers) (10 µM)	0	0	0	0	0	0	0	0	0	0	0	0	0	0	0	0	0	0
CCN(CC)CCCCNc1ncc2cc(-c3cc(OC)cc(OC)c3)c(NC(=O)NC(C)(C)C)nc2n1 (10 µM)	0	0	0	0	–	0	0	0	0	0	0	0	0	0	0	0	2	0
CNc1nc(-c2ccc3c(N)n[nH]c3c2)cc(N2C[C@@H](C(=O)NC3CCCCC3)CC[C@H]2C)n1 (10 µM)	0	0	0	0	0	0	0	0	0	0	0	0	0	0	0	0	0	0
Nc1ncnc2c1c(-c1ccc(Oc3ccccc3)cc1)cn2C1CCCC1 (2.5 µM)	0	0	0	0	0	0	0	0	0	0	0	0	1	0	0	0	0	–
Nc1ncnc2c1c(-c1cccc(OCc3ccccc3)c1)cn2C1CC(CN2CCCC2)C1 (configuration not stated) (2.5 µM)	0	0	0	0	0	0	0	0	0	0	0	0	0	0	0	0	0	0
N#C/C(=C\c1ccc(O)c(O)c1)C(=O)NCc1ccccc1 (10 µM)	0	0	0	0	0	0	0	0	0	0	0	0	0	0	0	0	0	0

Nothing new here: an excerpt of the list.
SMILES	number of time points (EPHA2)	number of time points (ERBB3)	number of time points [1]	number of time points (ERN1)	number of time points (FGFR1)	number of time points (FGFR2)	number of time points (FGFR3)	number of time points (FGR)	number of time points (FLT3)	number of time points (FYN)	number of time points (GSK3A)	number of time points (HER2)	number of time points (INSRR)	number of time points (IRAK3)	number of time points (JAK1)	number of time points (LIMK1)	number of time points (LIMK2)	number of time points (LCK)
CCOc1cc2ncc(C#N)c(Nc3ccc(OCc4ccccn4)c(Cl)c3)c2cc1NC(=O)/C=C/CN(C)C [Neratinib] (10 µM)	0	0	0	0	0	0	0	0	0	0	0	5	0	0	0	0	0	0
CN(c1ncccc1CNc1nc(Nc2ccc3c(c2)CC(=O)N3)ncc1C(F)(F)F)S(C)(=O)=O (2.5 µM)	0	3	3	0	0	3	0	0	2	0	0	0	3	3	3	0	0	–
